Patent US20040197345A1
No constants are given. Whether binding was seen depends on the method and setting. In cells and extracts the contact can be indirect. Some entries that bind do so weakly or less than the wild type.

Protein sequences, listed by entry. Tags and fused reporters are not part of them.
UniProt P10275: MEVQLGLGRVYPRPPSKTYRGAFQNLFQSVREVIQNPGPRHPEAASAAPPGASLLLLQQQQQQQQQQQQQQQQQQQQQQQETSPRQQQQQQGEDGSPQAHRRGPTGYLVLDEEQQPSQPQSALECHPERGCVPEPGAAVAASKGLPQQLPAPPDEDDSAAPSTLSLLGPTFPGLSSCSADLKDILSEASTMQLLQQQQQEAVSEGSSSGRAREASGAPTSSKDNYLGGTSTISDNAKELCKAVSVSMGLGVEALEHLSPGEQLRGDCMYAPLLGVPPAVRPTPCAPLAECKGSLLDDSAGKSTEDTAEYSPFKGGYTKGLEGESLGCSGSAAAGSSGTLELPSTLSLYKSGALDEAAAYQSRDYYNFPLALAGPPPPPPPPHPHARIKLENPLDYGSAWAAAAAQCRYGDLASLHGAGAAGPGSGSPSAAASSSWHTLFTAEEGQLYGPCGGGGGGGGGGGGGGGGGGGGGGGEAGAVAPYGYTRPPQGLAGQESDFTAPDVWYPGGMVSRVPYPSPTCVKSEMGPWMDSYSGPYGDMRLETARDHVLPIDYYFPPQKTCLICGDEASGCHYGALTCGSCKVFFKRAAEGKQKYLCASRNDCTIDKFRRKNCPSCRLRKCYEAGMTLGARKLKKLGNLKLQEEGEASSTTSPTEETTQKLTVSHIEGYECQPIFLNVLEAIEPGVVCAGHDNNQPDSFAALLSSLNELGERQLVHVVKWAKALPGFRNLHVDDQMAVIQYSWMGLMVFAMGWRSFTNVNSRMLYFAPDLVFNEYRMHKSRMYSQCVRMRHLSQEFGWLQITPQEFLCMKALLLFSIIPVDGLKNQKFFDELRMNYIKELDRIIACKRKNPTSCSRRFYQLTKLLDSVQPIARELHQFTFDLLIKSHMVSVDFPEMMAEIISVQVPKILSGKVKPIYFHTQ

Biological target: androgen receptor (UniProt P10275)
Experiment: GST pull-down

binding: binds
B1: Prostate Derived Ets Factor (PDEF), full length (protein)
chain: MGSASPGLSSVSPSHLLLPPDTVSRTGLEKAAAGAVGLERRDWSPSPPATPEQGLSAFYLSYFDMLYPEDSSWAAKAPGASSREEPPEEPEQCPVIDSQAPAGSLDLVPGGLTLEEHSLEQVQSMVVGEVLKDIETACKLLNITADPMDWSPSNVQKWLLWTEHQYRLPPMGKAFQELAGKELCAMSEEQFRQRSPLGGDVLHAHLDIWKSAAWMKERTSPGAIHYCASTSEESWTDSEVDSSCSGQPIHLWQFLKELLLKPHSYGRFIRWLNKEKGIFKIEDSAQVARLWGIRKNRPAMNYDKLSRSIRQYYKKGIIRKPDISQRLVYQFVHPI
